Consider eleven compounds from PubChem BioAssay (NCATS).

This is one part of the list. Shown are side measurements of this screen, not its main read-out; they come without a call. Most of these compounds were active or inconclusive in the main read-out, so they are no random draw. Potencies come from curve fits of mixed quality, noted in brackets.

The nature of this test: A High-Content qHTS Against Drug Library for the Identification of Small Molecules that Inhibit DYT1 Early Onset Primary Dystonia-Associated Cell Pathology (AID 1645839). The conditions noted are these: HEK293 Flp-In EGFP-delE TorsinA, punctate imaging, 48 h; measured here: cell count cytotoxicity. A digest of the protocol: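 Flp-In T-REx 293 cells with tetracycline-inducible EGFP-delE hTOR1A (WT EGFP-hTOR1A as reference), 800 cells/well; compound added with tetracycline, 48 h at 37 C. Fixed, permeabilized cells imaged; %pathology (punctate TorsinA) primary, cell count counterscreen.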
On the technique in general: In qHTS, concentration-response curves come from the screen itself.
Turning to `CC(C)(C)c1ccc(C(=O)CCCN2CCC(OC(c3ccccc3)c3ccccc3)CC2)cc1`, the AC50 (commonly the concentration giving half of the maximal activity seen) was 3.98 µM [falling, full curve].
As to `C[C@@H](CN(C)C)CN1c2ccccc2Sc2ccccc21`, the AC50 was 22.4 µM [falling, single point].
With `NC(=O)NC1NC(=O)NC1=O` (stereo unspecified), the AC50 was 35.5 µM [rising, single point].
As to `COC(c1ccccc1)(c1ccccc1)[C@H](Oc1nc(C)cc(C)n1)C(=O)O`, the AC50 is 22.4 µM [rising, single point].
For the compound `CC(C)=CCOc1ccc(/C=C/C(=O)c2ccc(OCC=C(C)C)cc2OCC(=O)O)cc1`, the AC50 was 35.5 µM [falling, single point].
Next, `Cc1cc(OCCOCC[N+](C)(C)Cc2ccccc2)ccc1C(C)(C)CC(C)(C)C`: 12.6 µM [falling, single point]; `O=C(O)Cn1cnnn1`: 31.6 µM [rising, single point].
Next, `Cc1c(C)c2c(c(C)c1OC(=O)CCC(=O)OCCO)CC[C@@](C)(CCC[C@H](C)CCC[C@H](C)CCCC(C)C)O2`: 6.31 µM [falling, partial curve, poor fit]; `COc1ccc2c(c1)c(CC(=O)OC/C=C(\C)CC/C=C(\C)CCC=C(C)C)c(C)n2C(=O)c1ccc(Cl)cc1`: 3.16 µM [falling, single point]; `Oc1c(I)cc(I)c2cccnc12`: 2.82 µM [falling, full curve, poor fit].
Next, `COc1cc(NC(C)CCCN)c2ncccc2c1` (stereo unspecified): 6.31 µM [falling, partial curve].
